Assay results from the supplement of paper PMC8007513.
This is one part of the list. Most values come without repeats; read them as rough.

System: Saccharomyces cerevisiae BY4743
Test: growth (OD600) relative to untreated control; higher = less growth inhibition
Details: compound concentration: 133 uM; 20 h
Procedure: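 NMCCC compounds (133 uM, no IPBC) tested alone against Saccharomyces cerevisiae BY4743 in YPD, 96-well plates, starting OD600 ~0.1. Growth was read as OD600 at 20 h and expressed as % of the untreated control. Single pass.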

Compound	growth [%]
CCCOc1c(Br)cc(C(=O)OCC(=O)N(C)C2CCS(=O)(=O)C2)cc1OC (configuration not stated)	101
Cc1ccc(-c2cnoc2NC(=O)CSC(C)C)cc1	102
CCOC(=O)COc1ccc2c(c1)c(C(C)=O)c(C)n2-c1ccc(Cl)cc1	57
Cc1cc(C)c2[nH]c(C)c(CC(=O)N3CCOCC3)c2c1	102
CCCNC(=O)c1cc(N(C)S(=O)(=O)c2ccc(C)cc2)ccn1	112
CCN(C(=O)c1cc(OC)cc(OC)c1)c1nc2c(C)cccc2s1	88.6
CC(C)N(Cc1ccccc1)Cc1nc(O)c2sccc2n1	103

An excerpt of these results, bar-delimited.
Compound | growth [%]
Cc1ccc(-c2cnoc2NC(=O)CSC(C)C)cc1 | 102
CCOC(=O)COc1ccc2c(c1)c(C(C)=O)c(C)n2-c1ccc(Cl)cc1 | 57
